Results from US20220184084A1, “COMPOSITIONS AND METHODS FOR TREATING CUSHING'S DISEASE” (The Regents of the University of California, priority 2019, published 2022).
At least one structure is not confirmed: it was looked up by name or label, or the drawing left a doubt.

Tested on: AtT20 cells stably transfected with POMC promoter driven luciferase
Experiment: POMC promoter-driven luciferase assay (POMC-Luc)
Type: cell-based, murine
Details: 1 day
Excerpt: Using a POMC promoter-driven luciferase assay, the direct actions of the aforementioned compounds on POMC transcription was examined.

## Cc1[nH]c2ccccc2c1CCNCc1ccc(/C=C/C(=O)NO)cc1 [panobinostat]
  effect on POMC transcription: inhibited POMC transcription
